Some of these results come from one statement about several compounds together.
Molecular target: T1, endogenous PAR1 on EA.hy.926 endothelial cells (Homo sapiens, UniProt P25116)
T1 construct: untransfected EA.hy.926 endothelial cells expressing endogenous EPCR and PAR1; host or cells: EA.hy.926 endothelial cells
T1 sequence (P25116 22-425): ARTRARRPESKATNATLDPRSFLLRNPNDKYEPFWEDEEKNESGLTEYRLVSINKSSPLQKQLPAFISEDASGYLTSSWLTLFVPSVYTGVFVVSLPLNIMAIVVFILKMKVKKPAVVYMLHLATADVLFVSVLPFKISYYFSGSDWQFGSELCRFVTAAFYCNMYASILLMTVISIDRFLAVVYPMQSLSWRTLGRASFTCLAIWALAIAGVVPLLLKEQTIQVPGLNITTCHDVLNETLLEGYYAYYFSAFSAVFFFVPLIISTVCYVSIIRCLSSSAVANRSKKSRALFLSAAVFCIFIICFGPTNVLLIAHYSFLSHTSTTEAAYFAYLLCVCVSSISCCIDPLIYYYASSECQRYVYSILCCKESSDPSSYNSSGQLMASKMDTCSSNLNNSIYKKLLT
Assay: On cell Western (OCW) immunoassay of PAR1 cleavage on EA.hy.926 endothelial cells
Type: cell-based
Conditions: 1 hr at 4° C., 0.5 nM thrombin or 25 nM APC; normalized to WEDE15
Method: Subsequently, these antibodies were used in an on cell Western (OCW) immunoassay on EA.hy.926 endothelial cells to determine whether APC cleaves PAR1 at Arg^46 in the presence of endogenous PAR1 and EPCR expression. […] Incubations were performed at 4° C. to minimize receptor recycling and internalization. After fixation and staining, antibody signals were normalized for total cell number using the cell permeable nuclear dye Draq5 and antibody signals for the goat anti-PAR1 antibodies (Ab87 and Origene) and ATAP2 were expressed as a fraction of the signal obtained for WEDE15 reflecting the total PAR1 present on the cell surface.
Detailed methods and steps used for the study shown in FIG. 5 are as follows: EA.hy.926 cells (ATCC: CRL-2922) were grown in black clear bottom 96 well plates (Nunc) in DMEM (Invitrogen #12430) supplemented with glutamax (Invitrogen #35050) and 10% FBS (Hyclone #35-011-CV) in a 37° C. cell incubator with a humidified atmosphere and 5% CO2 in air until confluency. […] After final washing with PBS/0.1% Tween, IR fluorescence of bound antibodies was determined using the Odyssey (Licor). Background fluorescence was determined by omitting the primary antibody and subtracting background values from all observed values.

Q: For thrombin, which “reduction of cleavage sensitive goat anti-PAR1 antibody (Ab87 and Origene) signals” value is on record?
A: 60-75%

Reference: patent publication US10273279B2, “Protease activated receptor-1 (PAR1) derived cytoprotective polypeptides and related methods” (THE SCRIPPS RESEARCH INSTITUTE, priority 2011, dated 2019)
